Sequences and labels used below:
T1: GST-tagged mouse GlialCAM cytosolic tail (mouse) (UniProt Q640R3)
T1 sequence: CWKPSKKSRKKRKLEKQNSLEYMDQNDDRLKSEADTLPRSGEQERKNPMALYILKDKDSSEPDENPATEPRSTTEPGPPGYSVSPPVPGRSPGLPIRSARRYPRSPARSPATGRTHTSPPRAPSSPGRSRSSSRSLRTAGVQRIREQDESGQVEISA

Chains of the proteins cited; added tags and fusions are not shown.
UniProt Q64331: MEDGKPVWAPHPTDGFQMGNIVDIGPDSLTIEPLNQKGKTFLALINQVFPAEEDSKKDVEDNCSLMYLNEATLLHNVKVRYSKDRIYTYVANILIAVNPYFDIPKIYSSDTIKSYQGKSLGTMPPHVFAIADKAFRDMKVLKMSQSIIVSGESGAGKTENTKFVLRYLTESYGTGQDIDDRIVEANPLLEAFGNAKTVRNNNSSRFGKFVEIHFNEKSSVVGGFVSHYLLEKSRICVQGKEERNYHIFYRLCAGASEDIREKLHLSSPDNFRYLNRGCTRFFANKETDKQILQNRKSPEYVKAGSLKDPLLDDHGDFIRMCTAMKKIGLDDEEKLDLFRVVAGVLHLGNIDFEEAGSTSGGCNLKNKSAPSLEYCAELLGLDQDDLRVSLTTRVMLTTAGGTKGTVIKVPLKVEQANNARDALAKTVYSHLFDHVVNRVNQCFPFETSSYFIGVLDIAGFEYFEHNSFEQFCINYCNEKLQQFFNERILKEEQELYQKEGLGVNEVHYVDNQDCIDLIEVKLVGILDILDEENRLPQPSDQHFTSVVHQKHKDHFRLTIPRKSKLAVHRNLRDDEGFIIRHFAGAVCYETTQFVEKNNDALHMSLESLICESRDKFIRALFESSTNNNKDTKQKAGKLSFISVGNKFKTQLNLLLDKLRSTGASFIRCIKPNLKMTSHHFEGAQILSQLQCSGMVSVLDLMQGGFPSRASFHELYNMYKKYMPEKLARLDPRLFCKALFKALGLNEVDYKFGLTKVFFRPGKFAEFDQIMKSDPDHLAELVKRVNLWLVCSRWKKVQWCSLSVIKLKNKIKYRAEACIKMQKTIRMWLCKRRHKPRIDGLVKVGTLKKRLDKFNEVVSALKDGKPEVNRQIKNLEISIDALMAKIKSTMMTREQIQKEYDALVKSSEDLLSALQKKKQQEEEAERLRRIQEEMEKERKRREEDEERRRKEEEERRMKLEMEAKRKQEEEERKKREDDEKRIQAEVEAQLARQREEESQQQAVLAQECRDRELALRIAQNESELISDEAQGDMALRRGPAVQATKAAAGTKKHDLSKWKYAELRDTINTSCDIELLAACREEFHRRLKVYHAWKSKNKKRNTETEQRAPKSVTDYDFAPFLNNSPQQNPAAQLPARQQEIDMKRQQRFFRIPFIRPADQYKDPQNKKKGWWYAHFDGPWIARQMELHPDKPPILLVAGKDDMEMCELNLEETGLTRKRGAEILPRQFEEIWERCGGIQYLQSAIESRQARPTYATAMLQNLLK
UniProt Q8BK67: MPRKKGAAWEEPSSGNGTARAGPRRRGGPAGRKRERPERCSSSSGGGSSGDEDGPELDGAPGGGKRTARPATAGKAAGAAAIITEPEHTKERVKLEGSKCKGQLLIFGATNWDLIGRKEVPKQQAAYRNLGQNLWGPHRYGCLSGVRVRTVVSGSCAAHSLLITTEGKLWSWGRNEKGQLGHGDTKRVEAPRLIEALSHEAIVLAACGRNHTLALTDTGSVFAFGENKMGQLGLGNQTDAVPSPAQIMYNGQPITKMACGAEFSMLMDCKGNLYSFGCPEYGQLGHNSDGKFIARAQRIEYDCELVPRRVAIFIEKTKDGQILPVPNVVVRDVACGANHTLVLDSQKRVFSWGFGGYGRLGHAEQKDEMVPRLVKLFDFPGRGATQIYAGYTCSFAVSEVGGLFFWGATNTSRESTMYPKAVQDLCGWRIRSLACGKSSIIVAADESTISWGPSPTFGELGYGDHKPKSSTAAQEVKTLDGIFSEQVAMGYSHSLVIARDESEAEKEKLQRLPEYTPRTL
UniProt Q9R0N7: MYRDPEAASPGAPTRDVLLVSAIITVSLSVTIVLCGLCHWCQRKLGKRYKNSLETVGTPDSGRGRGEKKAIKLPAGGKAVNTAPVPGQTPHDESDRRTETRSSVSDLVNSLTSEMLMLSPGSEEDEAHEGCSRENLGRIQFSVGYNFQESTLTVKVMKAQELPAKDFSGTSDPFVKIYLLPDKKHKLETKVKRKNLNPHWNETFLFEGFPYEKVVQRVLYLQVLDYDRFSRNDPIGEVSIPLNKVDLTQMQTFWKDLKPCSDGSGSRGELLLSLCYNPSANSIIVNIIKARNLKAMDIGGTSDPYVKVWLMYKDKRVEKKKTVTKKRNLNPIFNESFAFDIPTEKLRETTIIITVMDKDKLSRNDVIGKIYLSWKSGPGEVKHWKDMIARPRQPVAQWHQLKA
UniProt Q3UHU5: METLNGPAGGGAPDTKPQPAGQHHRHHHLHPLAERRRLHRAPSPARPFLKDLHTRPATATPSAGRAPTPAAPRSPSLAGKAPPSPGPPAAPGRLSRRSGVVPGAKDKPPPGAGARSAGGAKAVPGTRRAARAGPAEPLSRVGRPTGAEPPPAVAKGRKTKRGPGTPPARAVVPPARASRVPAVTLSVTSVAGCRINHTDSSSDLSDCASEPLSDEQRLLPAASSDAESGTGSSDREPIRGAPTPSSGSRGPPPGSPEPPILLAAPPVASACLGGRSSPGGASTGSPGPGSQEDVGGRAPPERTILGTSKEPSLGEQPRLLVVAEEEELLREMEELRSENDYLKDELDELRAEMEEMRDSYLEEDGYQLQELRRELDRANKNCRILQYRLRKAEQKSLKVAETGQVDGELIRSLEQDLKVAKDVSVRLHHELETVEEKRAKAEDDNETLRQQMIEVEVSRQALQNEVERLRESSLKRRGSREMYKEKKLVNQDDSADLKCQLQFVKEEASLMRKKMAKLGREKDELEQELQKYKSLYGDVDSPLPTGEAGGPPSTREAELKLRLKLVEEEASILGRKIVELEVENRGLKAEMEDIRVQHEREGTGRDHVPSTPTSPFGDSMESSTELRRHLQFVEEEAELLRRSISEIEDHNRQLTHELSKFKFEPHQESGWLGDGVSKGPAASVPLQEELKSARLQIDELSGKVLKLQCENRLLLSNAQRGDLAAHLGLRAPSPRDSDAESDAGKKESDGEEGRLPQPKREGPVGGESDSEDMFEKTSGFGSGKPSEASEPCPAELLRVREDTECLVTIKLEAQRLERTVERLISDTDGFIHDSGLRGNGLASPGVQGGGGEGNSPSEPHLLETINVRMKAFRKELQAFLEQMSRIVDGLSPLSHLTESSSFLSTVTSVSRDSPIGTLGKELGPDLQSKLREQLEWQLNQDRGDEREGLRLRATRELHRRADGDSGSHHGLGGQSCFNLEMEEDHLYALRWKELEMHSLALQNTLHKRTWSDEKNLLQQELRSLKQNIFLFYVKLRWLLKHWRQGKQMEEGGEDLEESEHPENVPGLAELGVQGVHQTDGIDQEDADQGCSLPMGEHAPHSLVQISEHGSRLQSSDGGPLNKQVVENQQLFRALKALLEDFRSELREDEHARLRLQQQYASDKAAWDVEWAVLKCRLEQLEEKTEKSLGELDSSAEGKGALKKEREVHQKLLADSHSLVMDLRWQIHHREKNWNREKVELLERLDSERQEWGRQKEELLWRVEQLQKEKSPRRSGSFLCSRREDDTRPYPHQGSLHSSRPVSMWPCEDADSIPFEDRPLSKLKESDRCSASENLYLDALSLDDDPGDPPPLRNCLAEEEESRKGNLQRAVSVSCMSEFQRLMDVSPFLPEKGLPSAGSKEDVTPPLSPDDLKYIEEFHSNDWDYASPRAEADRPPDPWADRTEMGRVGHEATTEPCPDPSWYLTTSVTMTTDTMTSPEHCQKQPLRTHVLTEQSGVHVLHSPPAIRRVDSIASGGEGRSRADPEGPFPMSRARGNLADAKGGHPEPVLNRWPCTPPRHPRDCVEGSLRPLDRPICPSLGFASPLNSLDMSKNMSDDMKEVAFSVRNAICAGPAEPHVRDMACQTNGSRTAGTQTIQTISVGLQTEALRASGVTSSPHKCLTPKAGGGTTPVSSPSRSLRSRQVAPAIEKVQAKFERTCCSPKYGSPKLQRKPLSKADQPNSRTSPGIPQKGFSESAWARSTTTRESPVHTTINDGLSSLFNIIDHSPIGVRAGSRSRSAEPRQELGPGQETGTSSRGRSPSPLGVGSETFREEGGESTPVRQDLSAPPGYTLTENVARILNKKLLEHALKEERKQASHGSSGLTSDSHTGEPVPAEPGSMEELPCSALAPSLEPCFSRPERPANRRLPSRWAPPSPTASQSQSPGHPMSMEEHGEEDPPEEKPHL
UniProt P14873: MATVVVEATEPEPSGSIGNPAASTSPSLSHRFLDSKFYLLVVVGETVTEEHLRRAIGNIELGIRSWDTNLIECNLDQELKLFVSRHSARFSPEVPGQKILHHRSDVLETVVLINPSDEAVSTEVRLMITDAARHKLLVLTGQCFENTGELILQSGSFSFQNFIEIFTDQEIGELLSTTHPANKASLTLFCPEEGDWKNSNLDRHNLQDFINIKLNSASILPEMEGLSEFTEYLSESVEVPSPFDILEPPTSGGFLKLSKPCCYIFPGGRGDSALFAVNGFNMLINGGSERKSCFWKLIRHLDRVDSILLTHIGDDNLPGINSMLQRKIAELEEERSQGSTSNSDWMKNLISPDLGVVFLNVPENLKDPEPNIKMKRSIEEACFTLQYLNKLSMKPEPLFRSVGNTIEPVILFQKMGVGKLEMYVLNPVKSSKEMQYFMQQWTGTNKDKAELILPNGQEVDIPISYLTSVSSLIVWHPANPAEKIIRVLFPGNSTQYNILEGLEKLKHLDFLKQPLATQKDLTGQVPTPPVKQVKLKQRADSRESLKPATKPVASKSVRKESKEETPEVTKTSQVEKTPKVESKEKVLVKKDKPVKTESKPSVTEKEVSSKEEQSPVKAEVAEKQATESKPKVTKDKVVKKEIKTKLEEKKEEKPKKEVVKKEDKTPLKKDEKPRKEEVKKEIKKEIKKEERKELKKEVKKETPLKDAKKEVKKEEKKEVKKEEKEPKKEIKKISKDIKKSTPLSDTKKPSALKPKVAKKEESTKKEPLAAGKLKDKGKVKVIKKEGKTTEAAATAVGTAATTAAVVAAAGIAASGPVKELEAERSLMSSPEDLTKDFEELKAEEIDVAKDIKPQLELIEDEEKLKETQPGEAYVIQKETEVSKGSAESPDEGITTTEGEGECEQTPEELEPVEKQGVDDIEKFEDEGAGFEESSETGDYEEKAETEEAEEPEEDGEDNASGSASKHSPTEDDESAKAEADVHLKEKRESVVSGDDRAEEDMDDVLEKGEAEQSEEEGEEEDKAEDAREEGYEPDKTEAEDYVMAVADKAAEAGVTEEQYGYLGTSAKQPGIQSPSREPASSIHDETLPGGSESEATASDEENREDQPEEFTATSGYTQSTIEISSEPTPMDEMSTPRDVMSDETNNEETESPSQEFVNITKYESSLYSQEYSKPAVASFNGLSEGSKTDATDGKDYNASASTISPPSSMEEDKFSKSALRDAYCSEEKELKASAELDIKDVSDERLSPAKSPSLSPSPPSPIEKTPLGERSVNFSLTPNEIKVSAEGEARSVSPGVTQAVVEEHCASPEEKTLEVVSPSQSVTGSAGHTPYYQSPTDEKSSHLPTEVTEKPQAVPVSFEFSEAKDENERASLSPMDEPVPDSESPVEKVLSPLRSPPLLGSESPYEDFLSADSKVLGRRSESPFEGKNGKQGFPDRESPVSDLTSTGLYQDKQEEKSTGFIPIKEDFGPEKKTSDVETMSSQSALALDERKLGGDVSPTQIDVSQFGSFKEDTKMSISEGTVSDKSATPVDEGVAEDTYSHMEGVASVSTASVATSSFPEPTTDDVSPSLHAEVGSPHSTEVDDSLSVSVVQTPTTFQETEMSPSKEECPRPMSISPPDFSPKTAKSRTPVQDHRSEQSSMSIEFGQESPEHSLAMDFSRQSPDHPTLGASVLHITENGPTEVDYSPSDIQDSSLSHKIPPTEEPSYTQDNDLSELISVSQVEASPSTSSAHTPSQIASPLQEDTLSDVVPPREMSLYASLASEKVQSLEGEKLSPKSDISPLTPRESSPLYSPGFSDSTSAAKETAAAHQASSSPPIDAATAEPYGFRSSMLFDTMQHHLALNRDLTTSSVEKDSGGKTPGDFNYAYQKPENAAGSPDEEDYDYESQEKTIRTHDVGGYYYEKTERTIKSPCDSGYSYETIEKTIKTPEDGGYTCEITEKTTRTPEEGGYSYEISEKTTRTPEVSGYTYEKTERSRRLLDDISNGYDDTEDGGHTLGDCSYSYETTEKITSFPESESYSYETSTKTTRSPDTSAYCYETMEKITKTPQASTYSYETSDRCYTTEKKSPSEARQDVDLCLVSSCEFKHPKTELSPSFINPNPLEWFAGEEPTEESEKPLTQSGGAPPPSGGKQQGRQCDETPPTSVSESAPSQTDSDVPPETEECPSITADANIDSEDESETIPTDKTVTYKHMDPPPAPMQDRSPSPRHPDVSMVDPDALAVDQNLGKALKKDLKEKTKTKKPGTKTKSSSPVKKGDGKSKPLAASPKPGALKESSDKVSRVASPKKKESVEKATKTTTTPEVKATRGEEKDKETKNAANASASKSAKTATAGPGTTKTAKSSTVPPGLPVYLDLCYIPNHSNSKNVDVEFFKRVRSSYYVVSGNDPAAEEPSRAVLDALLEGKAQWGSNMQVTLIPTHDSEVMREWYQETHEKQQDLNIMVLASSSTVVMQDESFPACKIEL

B1: C1QBP (p32) (protein, UniProt O35658 71-278)
chain: LHTEGDKAFVEFLTDEIKEEKKIQKHKSLPKMSGDWELEVNGTEAKLLRKVAGEKITVTFNINNSIPPTFDGEEEPSQGQKAEEQEPERTSTPNFVVEVTKTDGKKTLVLDCHYPEDEIGHEDEAESDIFSIKEVSFQATGDSEWRDTNYTLNTDSLDWALYDHLMDFLADRGVDNTFADELVELSTALEHQEYITFLEDLKSFVKNQ
B2: Rho guanine nucleotide exchange factor 2 (protein, UniProt Q60875 1-985)
chain: MSRIESLTRARIDRSKEQATKTREKEKMKEAKDARYTNGHLFTTISVSGMTMCYACNKSITAKEALICPTCNVTIHNRCKDTLANCTKVKQKQQKAALLRNNTALQSVSLRSKTTTRERPTSAIYPSDSFRQSLLGSRRGLSSLSLAKSVSTTNIAGHFNDESPLGLRQILSQSTDSLNMRNRTLSVESLIDEGVEVFYNELMSDFEMDEKDFEADSWSLAVDSSFLQQHKKEVMKKQDVIYELIQTELHHVRTLKIMTRLFRTGMLEELQMEPEVVQGLFPCVDELSDIHTRFLNQLLERRRQALCPGSTRNFVIHRLGDLLISQFSGSNAEQMRKTYSEFCSRHTKALKLYKELYARDKRFQQFIRKMTRSAVLKRHGVQECILLVTQRITKYPVLINRILQNSHGVEEEYQDLASALGLVKELLSNVDQDVHELEKEARLQEIYNRMDPRAQTPVPGKGPFGRDELLRRKLIHEGCLLWKTATGRFKDVLLLLMTDVLVFLQEKDQKYIFTSLDKPSVVSLQNLIVRDIANQAKGMFLISSGPPEMYEVHAASRDDRTTWIRVIQQSVRLCPSREDFPLIETEDKAYLRRIKTKLQQKNQALVELLQKNVELFAEMVHFQALKAGFVGMPPPALPRGLFRLESFESLRGERLLKDALREVEGLKDLLLGPCVDLPMTSREPALPLDSDSGSCPGVTANGEARTFNGSIELCRADSDSSQKDRNGNQLRSPQEEVLQPLINLYGLLHGLQAVVVQQERLMEALFPEGPERWEKLSRANSRDGEAGRAAVASVTPEKQATELALLQRQHTLLQEELRRCQRLGEERATEAGSLEARLRESEQARALLEREAEEIRRQLAALGQNEPLPAEAPWARRPLDPRRRSLPAGDALYLSFNPPQPSRGHDRLDLPVTVRSLHRPFDDREAQELGSPEDRLQDSSDPDTGSEEEVSSRLSPPHSPRDFTRMQDIPEETESRDGEPTASES
B3: DAB2 interacting protein (protein, UniProt Q3UHC7 1-1189)
chain: MSAGGNARKSTGRPSYYYRLLRRPRLQRQRSRSRSRTRPARESPQERPGSRRSLPGSMSEKNPSMEPSASTPFRVTGFLSRRLKGSIKRTKSQPKLDRNHSFRHILPGFRSAAAAAADNERSHLMPRLKESRSHESLLSPSSAVEALDLSMEEEVIIKPVHSSILGQDYCFEVTTSSGSKCFSCRSAAERDKWMENLRRAVHPNKDNSRRVEHILKLWVIEAKDLPAKKKYLCELCLDDVLYARTTSKLKTDNVFWGEHFEFHNLPPLRTVTVHLYRETDKKKKKERNSYLGLVSLPAASVAGRQFVEKWYPVVTPNPKGGKGPGPMIRIKARYQTVSILPMEMYKEFAEHITNHYLGLCAALEPILSAKTKEEMASALVHILQSTGKVKDFLTDLMMSEVDRCGDNEHLIFRENTLATKAIEEYLKLVGQKYLQDALGEFIKALYESDENCEVDPSKCSSADLPEHQGNLKMCCELAFCKIINSYCVFPRELKEVFASWRQECSSRGRPDISERLISASLFLRFLCPAIMSPSLFNLLQEYPDDRTARTLTLIAKVTQNLANFAKFGSKEEYMSFMNQFLEHEWTNMQRFLLEISNPETLSNTAGFEGYIDLGRELSSLHSLLWEAVSQLDQSVVSKLGPLPRILRDVHTALSTPGSGQLPGTNDLASTPGSGSSSVSAGLQKMVIENDLSGLIDFTRLPSPTPENKDLFFVTRSSGVQPSPARSSSYSEANEPDLQMANGSKSLSMVDLQDARTLDGEAGSPVGPDALPADGQVPATQLLAGWPARAAPVSLAGLATVRRAVPTPTTPGTSEGAPGRPQLLAPLSFQNPVYQMAAGLPLSPRGLGDSGSEGHSSLSSHSNSEELAAAAKLGSFSTAAEELARRPGELARRQMSLTEKGGQPTVPRQNSAGPQRRIDQPPPPPPPPPPAPRGRTPPTLLSTLQYPRPSSGTLASASPDWAGPGTRLRQQSSSSKGDSPELKPRAMHKQGPSPVSPNALDRTAAWLLTMNAQLLEDEGLGPDPPHRDRLRSKEELSQAEKDLAVLQDKLRISTKKLEEYETLFKCQEETTQKLVLEYQARLEEGEERLRRQQEDKDIQMKGIISRLMSVEEELKKDHAEMQAAVDSKQKIIDAQEKRIASLDAANARLMSALTQLKERYSMQARNGVSPTNPTKLQITENGEFRNSSNC

These are yes or no findings as the source states them, for the method shown. Binding seen in cells or lysates may run through a third protein. A yes stands for co-enrichment or nearness to the bait. Other partners may have been found. Tags and fused reporters may be left off the sequences shown.

These results are taken from paper doi:10.1101/2025.10.03.680331.

The target of the assay is T1, GST-tagged mouse GlialCAM cytosolic tail (mouse). Nature of the assay: affinity purification with mass spectrometry.
As for “synaptosome-associated protein 25 (from UniProt P60879 1-206)”, the binding entry was “binds”. Then “phosphatidylinositol-4-phosphate 5-kinase type-1 gamma (from UniProt O70161 1-661)”, with “binds”; and ATP2B1 (from UniProt G5E829 1-1220), with “binds”; and MYO6 (from UniProt Q64331 1-1262), with “binds”.

Take USP10 (from UniProt P52479 1-792): the binding entry was “binds”. To SRPK1 (from UniProt O70551 1-648) belongs “binds”; to KIF21A (from UniProt Q9QXL2 1-1672), “binds”; to DGKZ (from UniProt Q80UP3 1-929), “binds”. On to AGAP1 (from UniProt Q8BXK8 1-857), for which the binding entry is on record as “binds”. To DGKI (from UniProt D3YWQ0 1-1050) belongs “binds”. In the case of CAPZA2 (from UniProt P47754 1-286), the binding entry is listed as “binds”. MAP2K1 (from UniProt P31938 1-393): the binding entry is given as “binds”. Then MARK3 (from UniProt Q03141 1-753), with “binds”. To ITCH (from UniProt Q8C863 1-864) belongs “binds”; to MAP1A (from UniProt Q9QYR6 1-2776), “binds”; to WWP2 (from UniProt Q9DBH0 1-870), “binds”. Then RCC2 (from UniProt Q8BK67 1-520), with “binds”. Take NPM1 (from UniProt Q61937 1-292): the binding result was “binds”. For Thsd7a (from UniProt Q69ZU6 39-1645), the binding result is listed as “binds”. Then MARK2 (from UniProt Q05512 1-776), with “binds”; and MACF1 (from UniProt Q9QXZ0 1-7354), with “binds”; and SYT7 (from UniProt Q9R0N7 1-403), with “binds”. Then DCTN1 (from UniProt O08788 1-1281), with “binds”; and NED4L (from UniProt Q8CFI0 1-1004), with “binds”; and EPB41L3 (from UniProt Q9WV92 1-929), with “binds”. To “myelin basic protein (from UniProt P04370-5)” belongs “binds”. Consider MTCL1 (from UniProt Q3UHU5 1-1945), for which the binding result is “binds”.

With MAP1B (from UniProt P14873 1-2464), the binding entry is “binds”. Take SRPK2 (from UniProt O54781 1-681): the binding entry is “binds”. Take B1: the binding result is listed as “binds”. B2: the binding entry was “binds”. For the molecule B3, the binding entry is “binds”.
